Results deposited as PubChem BioAssay AID1159584 (Peter MacCallum Cancer Centre, 2016)
Here is a random part of about 18,000 reagents tested. Further read-outs or replicates are left out here. No sequences are given here. Not given: the amount of reagent, the time to read-out.

- Purpose: 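Knock-downs that harm CDH1-null cells more than parental MCF10A cells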 (primary screen)
- Cell system: human MCF10A breast epithelial cells, parental and CDH1-null
- Knock-down reagent: siRNA against human genes
- Read-out: 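ATP luminescence (CellTiter-Glo) viability per line relative to mean mock wells over all plates, and the ratio of CDH1-null to parental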
- Reading the numbers: CDH1-null / parental viability ratio: higher = CDH1-null cells survive relatively better than parental

Gene | PubChem SID | CDH1-null / parental viability ratio
RNF11 | SID152154316 | 0.8
RAP1GDS1 | SID135623041 | 0.79
MRPL30 | SID152154192 | 0.79
SLC46A2 | SID134322488 | 1.03
NFRKB | SID134319678 | 1.15
TRIM67 | SID152155154 | 1.01
TAPBPL | SID152148117 | 1.4
NLRP1 | SID152155577 | 0.77
SOWAHA | SID152152473 | 0.62
LYPD2 | SID152150877 | 1.14
DMAP1 | SID152148507 | 1.45
CDC37L1 | SID152156270 | 1.02
NOXO1 | SID134320237 | 1.05
USO1 | SID152149438 | 0.83
TECTB | SID134319272 | 1.38
TMEM38A | SID152149042 | 1.02
OR2T6 | SID134329921 | 1.07
LINC01973 | SID135625288 | 1.57
ZNF675 | SID152150599 | 1
HS6ST1 | SID135622227 | 0.98
MRPL33 | SID152149337 | 1.18
PLXNA3 | SID134324561 | 1.07
NUP210L | SID152150602 | 0.98
SS18L1 | SID135622639 | 0.97
ZFP36 | SID152153538 | 0.99
JADE2 | SID134322178 | 1.04
PROZ | SID134314741 | 1.08
JAGN1 | SID134322828 | 1.25

Quoted from the listing, 3 entries:
Gene | PubChem SID | CDH1-null / parental viability ratio
HS6ST1 | SID135622227 | 0.98
MRPL33 | SID152149337 | 1.18
PLXNA3 | SID134324561 | 1.07
